# Source: the supplement of paper PMC6119338
# This is one part of the list. Most values come without repeats; read them as rough.
# Test system: Plasmodium berghei sporozoites
# Assay: residual sporozoite gliding motility relative to DMSO control; higher = less inhibition of motility
# Conditions: 10 µM; incubation time 30 min
row,Compound,residual sporozoite gliding motility [%]
1,COc1ccc(C(=O)C(CCC(CNC(C)(C)C)C(=O)c2ccc(OC)cc2)CNC(C)(C)C)cc1 (stereo not drawn),> 50
2,CCCCCCc1cc2cc(-c3csc(C=Cc4ccccc4)n3)c(=O)oc2cc1O,> 50
3,CC(C)(C)c1ccc(C2CC3=Nc4ccccc4N(C(=O)c4ccccc4Cl)C(c4ccc(F)cc4)C3=C(O)C2)cc1 (stereo not drawn),> 50
4,CC(C)CCNCC(O)Cn1c2ccccc2c2ccccc21 (stereo not drawn),> 50
5,Cc1cc(N2CCCC2)nc(Nc2ccc(NC(=O)CCc3ccccc3)cc2)n1,> 50
6,COc1ccc2c(c1)C1(Nc3ccccc3-c3nc4ccccc4n31)C(=O)N2 (stereo not drawn),> 50
7,O=c1nc(C=Cc2ccc(Cl)cc2)oc2ccccc12,> 50
8,O=C1CC(O)(C(F)(F)C(F)(F)F)Oc2ccccc21 (stereo not drawn),> 50
9,CCN(CC)CCNc1ccnc2cc(Cl)ccc12,> 50
10,CC(NCc1ccccc1)c1cc(Cl)ccc1O (stereo not drawn),> 50
11,OC(CNCc1ccccc1)Cn1c2ccccc2c2ccccc21 (stereo not drawn),> 50
12,O=C(Nc1ccc(CN2CCOCC2)cc1)c1ccc(-c2cc(Cl)ccc2Cl)o1,> 50
13,c1ccc(Cn2c(N=Nc3c(Nc4ccccc4)ccc4ccccc34)nc3ccccc32)cc1,> 50
14,CC(=O)Nc1nnc(SCc2c(C)cc(C(C)(C)C)cc2C)s1,> 50
15,CN1CCN(c2ncnc3c2[nH]c2ccc(Cl)cc23)CC1,> 50
16,CCOC(=O)c1cn(CC)c2cc(N(C)CCc3ccc(OC)c(OC)c3)c(F)cc2c1=O,> 50
17,Cc1ccc(-c2nc3ccccc3o2)cc1NCc1cc(Cc2ccccc2)ccc1O,> 50
18,CN1C=C(c2ccc3ccccc3n2)C(c2c[nH]c3ccccc23)c2ccccc21 (stereo not drawn),> 50

# Exported with bars between the fields: entries from further up.
row | Compound | residual sporozoite gliding motility [%]
14 | CC(=O)Nc1nnc(SCc2c(C)cc(C(C)(C)C)cc2C)s1 | > 50
15 | CN1CCN(c2ncnc3c2[nH]c2ccc(Cl)cc23)CC1 | > 50
